Earlier results as cited in patent publication US20250034331A1, “POLYESTER URETHANE BIORESORBABLE ELASTOMERS WITH MICROSTRUCTURES FOR TUNABLE DRUG RELEASE AND TUNABLE DEGRADATION” (SOLESIS, INC., priority 2023, published 2025).

Settings: 25° C.

- solubility in PBS: around 75 μg/mL
Structure (SMILES): C[C@@H]1C[C@H]2[C@@H]3CCC4=CC(=O)C=C[C@]4(C)[C@@]3(F)[C@@H](O)C[C@]2(C)[C@@]1(O)C(=O)CO [dexamethasone]
